{
  "source": "paper doi:10.1101/434159",
  "target": "T1, 2×HA-3×Flag-Eya1 (constitutively expressed in HEK293 cells) (UniProt P97767)",
  "T1 sequence": "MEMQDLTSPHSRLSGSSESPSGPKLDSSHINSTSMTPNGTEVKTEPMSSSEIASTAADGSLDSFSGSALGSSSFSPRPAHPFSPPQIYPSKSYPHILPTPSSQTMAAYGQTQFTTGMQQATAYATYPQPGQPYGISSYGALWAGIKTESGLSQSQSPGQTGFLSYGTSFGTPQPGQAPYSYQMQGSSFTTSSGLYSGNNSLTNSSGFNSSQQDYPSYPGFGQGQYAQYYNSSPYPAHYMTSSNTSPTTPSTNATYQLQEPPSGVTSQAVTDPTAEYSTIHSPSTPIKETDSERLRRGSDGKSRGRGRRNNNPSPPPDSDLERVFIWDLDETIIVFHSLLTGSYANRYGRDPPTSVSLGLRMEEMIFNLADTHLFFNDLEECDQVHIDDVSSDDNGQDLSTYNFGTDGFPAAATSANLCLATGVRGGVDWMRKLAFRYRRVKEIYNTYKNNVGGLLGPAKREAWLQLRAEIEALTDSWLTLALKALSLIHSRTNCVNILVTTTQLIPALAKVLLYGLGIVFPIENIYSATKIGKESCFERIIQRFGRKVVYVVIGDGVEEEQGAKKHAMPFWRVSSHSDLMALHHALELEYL",
  "assay": "affinity purification with mass spectrometry",
  "note": "Results are given in words; binding and its absence hold for the method and conditions named. Binding seen in cells or lysates may run through a third protein. These calls come from enrichment with a bait or labelling near it, and not all partners need be listed. Sequences can lack the tags named with a protein.",
  "data": [
    {"substance": "BAF60b (HEK293 cells) (from UniProt Q92925 1-531)", "values": [
      {"measurement": "binding", "value": "binds"}
    ]},
    {"substance": "BAF170 (HEK293 cells) (from UniProt Q8TAQ2 1-1214)", "values": [
      {"measurement": "binding", "value": "binds"}
    ]},
    {"substance": "BAF155 (HEK293 cells) (from UniProt Q92922 1-1105)", "values": [
      {"measurement": "binding", "value": "binds"}
    ]}
  ]
}
